# The supplement of paper PMC8728848
# Some of the results follow.
# B1: XTP3-B-MRH2 (Homo sapiens), Q96DZ1 (protein)
# chain: EFLSGSYCFRGGVGWWKYEFCYGKHVHQYHEDKDSGKTSVVVGTWNQEEHIEWAKKNTARAYHLQDDGTQTVRMVSHFYGNGDICDITDKPRQVTVKLKCKESDSPHAVTVYMLEPHSCQYILGVESPVICKILDTA
# Columns and labels:
# Experiment in all cases: glycan array binding signal (z-score within array); higher = stronger binding
# Settings in all cases: glycan notation: IUPAC condensed, linker removed
# [1] = biological target: Neu5Ac(a2-3)Gal(b1-3)GlcNAc(b1-6)GalNAc
# In short: (§1)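 Glycan array data came from 3228 arrays in the Consortium for Functional Glycomics database, and only arrays with an available protein sequence were kept. Glycan names were put into IUPAC-condensed notation, and columns mapping to the same glycan were averaged. The binding signal is a within-array Z-score, averaged across arrays of one protein sequence run at different concentrations or buffers and across linkers. A negative Z-score can be read as non-binding.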
# [2] = biological target: Neu5Ac(a2-3)Gal(b1-3)GlcNAc6S
# In short: as §1
# [3] = biological target: Neu5Ac(a2-3)Gal(b1-3)[Fuc(a1-4)]GlcNAc
# In short: as §1
# [4] = biological target: Neu5Ac(a2-3)Gal(b1-3)[Fuc(a1-4)]GlcNAc(b1-3)Gal(b1-3)[Fuc(a1-4)]GlcNAc
# In short: as §1
# [5] = biological target: Neu5Ac(a2-3)Gal(b1-3)[Fuc(a1-4)]GlcNAc(b1-3)Gal(b1-4)[Fuc(a1-3)]GlcNAc
# In short: as §1
# [6] = biological target: Neu5Ac(a2-3)Gal(b1-3)[GlcNAc(b1-6)]GalNAc
# In short: as §1
# [7] = biological target: Neu5Ac(a2-3)Gal(b1-3)[Neu5Ac(a2-6)]GalNAc
# In short: as §1
# [8] = biological target: Neu5Ac(a2-3)Gal(b1-3)[Neu5Ac(a2-6)]GlcNAc(b1-3)[Fuc(a1-3)[Gal(b1-4)]GlcNAc(b1-6)]Gal(b1-4)Glc
# In short: as §1
# [9] = biological target: Neu5Ac(a2-3)Gal(b1-3)]Neu5Ac(a2-3)Gal(b1-4)]GlcNAc
# In short: as §1
# Neu5Ac(a2-3)Gal(b1-4)Glc = biological target: Neu5Ac(a2-3)Gal(b1-4)Glc
# In short: as §1
# [10] = biological target: Neu5Ac(a2-3)Gal(b1-4)GlcNAc
# In short: as §1
# [11] = biological target: Neu5Ac(a2-3)Gal(b1-4)GlcNAc(b1-2)Man
# In short: as §1
# [12] = biological target: Neu5Ac(a2-3)Gal(b1-4)GlcNAc(b1-2)Man(a1-3)[GlcNAc(b1-4)][Neu5Ac(a2-3)Gal(b1-4)GlcNAc(b1-2)Man(a1-6)]Man(b1-4)GlcNAc(b1-4)GlcNAc
# In short: as §1
# [13] = biological target: Neu5Ac(a2-3)Gal(b1-4)GlcNAc(b1-2)Man(a1-3)[Neu5Ac(a2-3)Gal(b1-4)GlcNAc(b1-2)Man(a1-6)]Man(b1-4)GlcNAc(b1-4)GlcNAc
# In short: as §1
# [14] = biological target: Neu5Ac(a2-3)Gal(b1-4)GlcNAc(b1-2)Man(a1-3)[Neu5Ac(a2-3)Gal(b1-4)GlcNAc(b1-2)Man(a1-6)]Man(b1-4)GlcNAc(b1-4)[Fuc(a1-6)]GlcNAc
# In short: as §1
# [15] = biological target: Neu5Ac(a2-3)Gal(b1-4)GlcNAc(b1-2)Man(a1-3)[Neu5Ac(a2-6)Gal(b1-4)GlcNAc(b1-2)Man(a1-6)]Man(b1-4)GlcNAc(b1-4)GlcNAc
# In short: as §1
# [16] = biological target: Neu5Ac(a2-3)Gal(b1-4)GlcNAc(b1-2)[Neu5Ac(a2-3)Gal(b1-4)GlcNAc(b1-4)]Man(a1-3)[GlcNAc(b1-4)][Neu5Ac(a2-3)Gal(b1-4)GlcNAc(b1-2)[Neu5Ac(a2-3)Gal(b1-4)GlcNAc(b1-6)]Man(a1-6)]Man(b1-4)GlcNAc(b1-4)GlcNAc
# In short: as §1
# [17] = biological target: Neu5Ac(a2-3)Gal(b1-4)GlcNAc(b1-2)[Neu5Ac(a2-3)Gal(b1-4)GlcNAc(b1-4)]Man(a1-3)[GlcNAc(b1-4)][Neu5Ac(a2-3)Gal(b1-4)GlcNAc(b1-4)Man(a1-6)]Man(b1-4)GlcNAc(b1-4)GlcNAc
# In short: as §1
# [18] = biological target: Neu5Ac(a2-3)Gal(b1-4)GlcNAc(b1-2)[Neu5Ac(a2-3)Gal(b1-4)GlcNAc(b1-6)]Man(a1-6)[Neu5Ac(a2-3)Gal(b1-4)GlcNAc(b1-2)Man(a1-3)][GlcNAc(b1-4)]Man(b1-4)GlcNAc(b1-4)GlcNAc
# In short: as §1
# [19] = biological target: Neu5Ac(a2-3)Gal(b1-4)GlcNAc(b1-3)Gal
# In short: as §1
# [20] = biological target: Neu5Ac(a2-3)Gal(b1-4)GlcNAc(b1-3)Gal(b1-3)GlcNAc
# In short: as §1
# [21] = biological target: Neu5Ac(a2-3)Gal(b1-4)GlcNAc(b1-3)Gal(b1-4)GlcNAc
# In short: as §1
# [22] = biological target: Neu5Ac(a2-3)Gal(b1-4)GlcNAc(b1-3)Gal(b1-4)GlcNAc(b1-2)Man(a1-3)[Neu5Ac(a2-3)Gal(b1-4)GlcNAc(b1-3)Gal(b1-4)GlcNAc(b1-2)Man(a1-6)]Man(b1-4)GlcNAc(b1-4)GlcNAc
# In short: as §1
# [23] = biological target: Neu5Ac(a2-3)Gal(b1-4)GlcNAc(b1-3)Gal(b1-4)GlcNAc(b1-3)Gal(b1-4)GlcNAc
# In short: as §1
# [24] = biological target: Neu5Ac(a2-3)Gal(b1-4)GlcNAc(b1-3)Gal(b1-4)GlcNAc(b1-3)Gal(b1-4)GlcNAc(b1-2)Man(a1-3)[Neu5Ac(a2-3)Gal(b1-4)GlcNAc(b1-3)Gal(b1-4)GlcNAc(b1-3)Gal(b1-4)GlcNAc(b1-2)Man(a1-6)]GalNAc
# In short: as §1
# [25] = biological target: Neu5Ac(a2-3)Gal(b1-4)GlcNAc(b1-3)Gal(b1-4)GlcNAc(b1-3)GalNAc
# In short: as §1
# [26] = biological target: Neu5Ac(a2-3)Gal(b1-4)GlcNAc(b1-3)Gal(b1-4)GlcNAc(b1-3)[Neu5Ac(a2-3)Gal(b1-4)GlcNAc(b1-3)Gal(b1-4)GlcNAc(b1-6)]GalNAc
# In short: as §1
# [27] = biological target: Neu5Ac(a2-3)Gal(b1-4)GlcNAc(b1-3)Gal(b1-4)GlcNAc(b1-6)[Gal(b1-3)]GalNAc
# In short: as §1
# [28] = biological target: Neu5Ac(a2-3)Gal(b1-4)GlcNAc(b1-3)Gal(b1-4)[Fuc(a1-3)]GlcNAc
# In short: as §1
# [29] = biological target: Neu5Ac(a2-3)Gal(b1-4)GlcNAc(b1-3)GalNAc
# In short: as §1
binder,measurement,setting,value
B1,glycan array binding signal (z-score),[1],1.44
same,glycan array binding signal (z-score),[2],1.04
same,glycan array binding signal (z-score),[3],-0.125
same,glycan array binding signal (z-score),[4],-0.226
same,glycan array binding signal (z-score),[5],2.02
same,glycan array binding signal (z-score),[6],-1.04
same,glycan array binding signal (z-score),[7],-0.177
same,glycan array binding signal (z-score),[8],-0.373
same,glycan array binding signal (z-score),[9],-0.154
same,glycan array binding signal (z-score),Neu5Ac(a2-3)Gal(b1-4)Glc,1.35
same,glycan array binding signal (z-score),[10],-0.101
same,glycan array binding signal (z-score),[11],-0.332
same,glycan array binding signal (z-score),[12],-0.074
same,glycan array binding signal (z-score),[13],-1.63
same,glycan array binding signal (z-score),[14],0.635
same,glycan array binding signal (z-score),[15],-0.307
same,glycan array binding signal (z-score),[16],-1.25
same,glycan array binding signal (z-score),[17],-0.347
same,glycan array binding signal (z-score),[18],-1.02
same,glycan array binding signal (z-score),[19],-1.44
same,glycan array binding signal (z-score),[20],-0.02
same,glycan array binding signal (z-score),[21],1.22
same,glycan array binding signal (z-score),[22],-0.486
same,glycan array binding signal (z-score),[23],0.505
same,glycan array binding signal (z-score),[24],0.813
same,glycan array binding signal (z-score),[25],-0.914
same,glycan array binding signal (z-score),[26],1.25
same,glycan array binding signal (z-score),[27],-0.695
same,glycan array binding signal (z-score),[28],-0.481
same,glycan array binding signal (z-score),[29],-0.754

# 2 entries from above in a different format.
binder	measurement	setting	value
B1	glycan array binding signal (z-score)	[11]	-0.332
same	glycan array binding signal (z-score)	[15]	-0.307
